Among the data in article PMC8062543 (Scientific Reports, 2021) are binding values, retold here.

The assay has as its target gluconate kinase (GntK) from Methylotuvimicrobium alcaliphilum 20Z (Methylotuvimicrobium alcaliphilum 20Z) (UniProt G4T089). Description: SEC; gel filtration on XK 16/100 Superdex 200, 0.02 M Tris-HCl pH 7.0 with 0.5 M NaCl, calibrated with protein markers; GDHs with the cut-off His-tag; both purified. (In gel filtration, larger molecules generally elute earlier.)

Results are given in words; binding and its absence hold for the method and conditions named. Sequences can lack the tags named with a protein.

B1: gluconate kinase (GntK) from Methylotuvimicrobium alcaliphilum 20Z (enzyme, UniProt G4T089 1-181)
chain: MNSSNDSRHRAARVVIIGGVSGCGKSTVGRALAEYLGWSFIEGDAFHSEANIEKMRRGEALDDNDRRPWLESLHNEIIYHLDRGISAVMACSALKASYREILCGDEVNVSFVFLSCSRESLHRRLTTRQGHFLGAELLDSQLAAFESSHDILLIDSEQAVETLVESIADWLAYSGSECDET
Turning to B1, the binding result is “no binding”.
